Laboratory results as given in the supplement of paper PMC3334620.
Over roughly 33,000 sequences, “E-score (-0.5 to 0.5)” has its median near -0.015; the highest 2% begin near 0.3. The list shows a part of the results.

The sequences below were run against T1, Abf1 (UniProt P14164) (assay: PBM E-score (8-mer binding enrichment) (E-score (-0.5 to 0.5)); higher = stronger / more preferred TF binding). Conditions: protein concentration: 200 nM; construct: GST-full length.
T1 sequence: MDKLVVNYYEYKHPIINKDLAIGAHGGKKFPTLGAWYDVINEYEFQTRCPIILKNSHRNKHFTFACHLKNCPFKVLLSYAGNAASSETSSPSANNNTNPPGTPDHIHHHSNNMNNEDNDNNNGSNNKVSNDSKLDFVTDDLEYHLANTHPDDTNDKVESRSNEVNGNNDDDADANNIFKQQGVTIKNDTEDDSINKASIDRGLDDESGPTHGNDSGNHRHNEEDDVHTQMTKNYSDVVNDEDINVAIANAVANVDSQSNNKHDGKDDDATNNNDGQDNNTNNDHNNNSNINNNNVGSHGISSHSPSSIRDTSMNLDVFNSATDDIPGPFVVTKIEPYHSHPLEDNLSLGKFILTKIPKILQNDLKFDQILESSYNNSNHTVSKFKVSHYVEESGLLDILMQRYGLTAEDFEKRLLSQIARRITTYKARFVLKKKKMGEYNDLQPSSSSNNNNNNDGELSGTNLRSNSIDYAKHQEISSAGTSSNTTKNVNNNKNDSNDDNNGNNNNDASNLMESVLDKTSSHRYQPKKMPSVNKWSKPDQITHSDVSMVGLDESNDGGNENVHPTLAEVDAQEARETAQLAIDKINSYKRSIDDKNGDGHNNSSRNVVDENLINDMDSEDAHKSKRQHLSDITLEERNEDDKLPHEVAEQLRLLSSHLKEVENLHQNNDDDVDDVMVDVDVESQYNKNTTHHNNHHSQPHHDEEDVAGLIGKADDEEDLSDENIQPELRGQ
Procedure, shortened: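 Using PURExpress in vitro transcription/translation, GST-tagged yeast transcription factors were made in full-length or DNA-binding-domain form. These were applied at about 100-200 nM to double-stranded universal all-10-mer Agilent arrays, and bound protein was detected with fluorescent anti-GST. Scans were normalised with masliner before the Universal PBM Analysis Suite assigned E-scores to ungapped eight-base words pooled with their reverse complements.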

| Sequence | PBM E-score |
| --- | --- |
| ACTATCAG | -0.0348 |
| AATCAGTC | 0.165 |
| CACTCGCA | -0.0365 |
| AAAACTCT | -0.0704 |
| ATAGGCCA | -0.219 |
| CCCACAAC | -0.0362 |
| CGGTGGGA | -0.158 |
| CTAATGGC | -0.107 |
| AGCGTGCA | 0.0338 |
| ATTCACTG | -0.205 |
| GATACTGC | -0.00387 |
| CACCGGGG | -0.306 |
| CCCTGTAG | -0.2 |
| AGACGTCC | 0.0232 |
| ATCTGAAA | 0.0724 |
| AGGTCCTG | -0.185 |
| AAACCACA | -0.0331 |
| AGAGCTTC | -0.139 |
| ACAAACCG | -0.0187 |
| GACAAGTA | 0.0435 |
| CGCTCGAA | -0.0539 |
| TAGATAAA | 0.0715 |
| CACTCAAC | -0.0212 |
| GGTGGATA | 0.0595 |
| ACGAAACG | 0.229 |

Not a retest: an excerpt of the list.

| Sequence | PBM E-score |
| --- | --- |
| AGACGTCC | 0.0232 |
| ATCTGAAA | 0.0724 |
| AGGTCCTG | -0.185 |
| AAACCACA | -0.0331 |
| AGAGCTTC | -0.139 |
| ACAAACCG | -0.0187 |

The list continues:

| Sequence | PBM E-score |
| --- | --- |
| ACATAGTG | 0.0393 |
| GACTAACC | -0.126 |
| GCTGCTTA | -0.223 |
| CCGTTTTA | 0.203 |
| CCAATTGG | 0.155 |
| ATGTATGC | 0.022 |
| CCGTACGC | 0.241 |
| ATCCCCAT | -0.0421 |
| CAAGGGAG | -0.103 |
| AAGCCGGT | -0.0549 |
| GCGGGAGC | -0.288 |
| AAAGACTA | -0.2 |
| CGTCCTAG | -0.0233 |
| TATTGTGA | 0.191 |
| AGCTTCGC | 0.0433 |
| CGTAGATC | 0.159 |
| ACTAGACA | 0.14 |
| CAGCTATC | 0.0097 |
| CCCCATCA | -0.235 |
| ATCTAATA | 0.216 |
| ACGTTCCG | -0.336 |
| CCTGCCAG | -0.157 |
| GTTCCGGA | -0.0188 |
| ATGATCCG | 0.0927 |
| AGTGGTAC | -0.207 |

| Sequence | PBM E-score |
| --- | --- |
| AGAGGATA | 0.0676 |
| AGAATAGG | 0.052 |
| AAAACGAC | 0.323 |
| ATGCAGCG | -0.174 |
| GGCCAGCA | -0.196 |
| CAAAGGTG | -0.108 |
| GCTGTGCA | -0.0617 |
| CCCCCCGC | -0.381 |
| GGCAGGCC | -0.316 |
| GCGACCCA | -0.0615 |
| CTTTCCTC | -0.168 |
| GGAGACAA | -0.0316 |
| CCCAATCC | -0.0335 |
| CCATCAGC | -0.244 |
| AATCCTAT | 0.104 |
| CCAGGTTC | -0.24 |
| AGGCGCCT | -0.0375 |
| ATGAGAAG | 0.117 |
| AGCTGTTG | 0.19 |
| TCGAGTAA | 0.0992 |
| ACGCGAGC | -0.159 |
| CAAACTGG | -0.253 |
| GAGGTCCA | 0.0249 |
| CTTGGGTC | -0.179 |
| TTGGAAAA | -0.157 |

| Sequence | PBM E-score |
| --- | --- |
| AGGCAATA | -0.204 |
| CACCCTCG | -0.12 |
| AACGAATA | 0.0223 |
| GCAGTAGC | -0.226 |
| ACGGGGAT | 0.168 |
| AAGTCTGA | -0.0352 |
| CGAGGCCG | -0.0493 |
| CACAGAAC | -0.0252 |
| GTGTCTCA | -0.00422 |
| CAGCCATA | -0.126 |
| CTAGGGAC | 0.0118 |
| AGTACGAC | 0.18 |
| AGGAGAAG | -0.0371 |
| AATAATAT | 0.276 |
| CTTGTCAA | 0.0838 |
| AGCCATTC | -0.231 |
| CCACATGG | -0.278 |
| CACGTGTA | 0.217 |
| GACATCTA | 0.189 |
| CTTTTGCA | 0.0446 |
| CACCCAAA | -0.0485 |
| ACCAATAA | -0.00797 |
| CTGCGTAA | -0.00545 |
| TCCAGGAA | -0.0758 |
| CCATAGGA | -0.161 |

| Sequence | PBM E-score |
| --- | --- |
| AAATTCAG | 0.104 |
| GTGCAAAA | 0.167 |
| GAACCACC | -0.0746 |
| AGTCAGCG | -0.195 |
| ATCCAGAG | 0.081 |
| ACTGCTGC | 0.0883 |
| GTCGGAGA | 0.00386 |
| CTTGACGC | -0.271 |
| TCCCCTAA | -0.0513 |
| TCGCAAGA | 0.0486 |
| TACGTACA | 0.271 |
| AAGTCAGG | -0.21 |
| ACTTGCGG | -0.187 |
| ACCAGCTG | 0.0537 |
| AAGATAGA | 0.0332 |
| CAGGTATA | 0.0143 |
| GGCCCCAA | -0.203 |
| CGCTAGGC | -0.185 |
| CATATCAA | 0.222 |
| AGCCGAAT | -0.0767 |
| AACGCTGG | -0.224 |
| ACGTATTC | 0.0987 |
| AGGTACGC | -0.111 |
| CCTTATCG | 0.163 |
| GCTTCGCC | -0.147 |

| Sequence | PBM E-score |
| --- | --- |
| AACCGAGA | 0.0787 |
| AGTAATGC | -0.114 |
| CTCCCCAC | -0.0818 |
| ATTCGTAG | 0.191 |
| CGAGGCTC | -0.222 |
| CACGCGGG | -0.0466 |
| CTAGCGGA | -0.327 |
| GTAAACCA | -0.0676 |
| GCTAGCCC | -0.331 |
| TCGACAAA | -0.0435 |
| ATTTTCAG | 0.0843 |
| GGTAAGAA | -0.0831 |
| ATCCTCTA | 0.083 |
| ATGGCTAG | 0.1 |
| AACGTCGG | -0.0426 |
| ATAGCTTA | -0.0294 |
| CATGATGC | 0.123 |
| CCGTGCGC | 0.218 |
| AGGAGACC | -0.21 |
| CGTGTGCC | 0.0926 |
| ATGGCGCG | -0.129 |
| GCAGCCCC | -0.257 |
| GGATATTA | 0.088 |
| ACCTTACG | 0.1 |
| AGATGCAT | -0.058 |

Quoted at random: five records from the list

| Sequence | PBM E-score |
| --- | --- |
| AGGAGACC | -0.21 |
| ATAGCTTA | -0.0294 |
| ACCTTACG | 0.1 |
| GGTAAGAA | -0.0831 |
| CGAGGCTC | -0.222 |

Next part

| Sequence | PBM E-score |
| --- | --- |
| CAACTCAG | -0.141 |
| AGAGCCGA | -0.112 |
| AGCTTTCC | -0.221 |
| ATCCGAAC | -0.195 |
| GGCTATTA | 0.199 |
| CTAGTACA | 0.0965 |
| AGGTGAGA | 0.0141 |
| CTCTGTGA | -0.118 |
| CGTACCAA | 0.353 |
| GTGGACGA | 0.204 |
| AAACAGCG | -0.115 |
| ACGTGATG | 0.215 |
| ACCACGAA | 0.0971 |
| AGGAAAAC | 0.0249 |
| CTCACTGC | -0.0817 |
| ATGGCAGC | -0.268 |
| AGGGAATC | -0.139 |
| ATAACGAT | 0.211 |
| CATGTAGG | -0.00058 |
| ATGGATAA | 0.0572 |
| TTTAAAAA | 0.00896 |
| GACTATTA | 0.0634 |
